These are yes or no findings as the source states them, for the method shown. Binding calls can cover weak binding; strength is not graded here.
Columns and labels:
[1] = target: recombinant FGF23 protein (species not stated for the assay); assay: sKL detection assay (sandwich): FGF23 coated, sKL sample, then Fc-FGFR1c, anti-Fc-HRP, A450
[2] = target: recombinant FGF23 protein (species not stated for the assay); assay: sandwich plate assay: FGF23 coated, klotho preparation, then Fc-FGFR1c and anti-Fc-HRP [legend FIG. 22B]
[3] = target: recombinant FGF23 protein (species not stated for the assay); assay: sKL detection assay (sandwich): FGF23 coated, sKL sample, then Fc-FGFR1c, anti-Fc-HRP (FIG. 22B)
[4] = target: recombinant FGF23 protein (species not stated for the assay); assay: sandwich plate assay: FGF23 coated, klotho preparation, then Fc-FGFR1c and anti-Fc-HRP

binding [1]: binds | binding [2]: binds | binding [3]: binds | binding [4]: binds
B1: commercial mouse sKL from R&D Systems (1819KL050) (receptor)
chain: AEPGQGAQTWARFARAPAPEAAGLLHDTFPDGFLWAVGSAAYQTEGGWRQHGKGASIWDTFTHHSGAAPSDSPIVVAPSGAPSPPLSSTGDVASDSYNNVYRDTEGLRELGVTHYRFSISWARVLPNGTAGTPNREGLRYYRRLLERLRELGVQPVVTLYHWDLPQRLQDTYGGWANRALADHFRDYAELCFRHFGGQVKYWITIDNPYVVAWHGYATGRLAPGVRGSSRLGYLVAHNLLLAHAKVWHLYNTSFRPTQGGRVSIALSSHWINPRRMTDYNIRECQKSLDFVLGWFAKPIFIDGDYPESMKNNLSSLLPDFTESEKRLIRGTADFFALSFGPTLSFQLLDPNMKFRQLESPNLRQLLSWIDLEYNHPPIFIVENGWFVSGTTKRDDAKYMYYLKKFIMETLKAIRLDGVDVIGYTAWSLMDGFEWHRGYSIRRGLFYVDFLSQDKELLPKSSALFYQKLIEDNGFPPLPENQPLEGTFPCDFAWGVVDNYVQVDTTLSQFTDPNVYLWDVHHSKRLIKVDGVVAKKRKPYCVDFSAIRPQITLLREMRVTHFRFSLDWALILPLGNQTQVNHTVLHFYRCMISELVHANITPVVALWQPAAPHQGLPHALAKHGAWENPHTALAFADYANLCFKELGHWVNLWITMNEPNTRNMTYRAGHHLLRAHALAWHLYDDKFRAAQKGKISIALQADWIEPACPFSQNDKEVAERVLEFDIGWLAEPIFGSGDYPRVMRDWLNQKNNFLLPYFTEDEKKLVRGSFDFLAVSHYTTILVDWEKEDPMKYNDYLEVQEMTDITWLNSPSQVAVVPWGLRKVLNWLRFKYGDLPMYVTANGIDDDPHAEQDSLRIYYIKNYVNEALKAYVLDDINLCGYFAYSLSDRSAPKSGFYRYAANQFEPKPSMKHYRKIIDSNGFLGSGTLGRFCPEEYTVCTECGFFQTRK

From US20240384250A1, “FIBROBLAST GROWTH FACTOR 23 MODULATING COMPOUNDS” (THE UAB RESEARCH FOUNDATION, priority 2021, published 2024)
